The record followed here is article PMC7862700.

Protein sequences, listed by entry. Tags and fused reporters are not part of them. Lines headed by an entry give the natural chain unless they say otherwise; changes in a name come on top.
UniProt O43186: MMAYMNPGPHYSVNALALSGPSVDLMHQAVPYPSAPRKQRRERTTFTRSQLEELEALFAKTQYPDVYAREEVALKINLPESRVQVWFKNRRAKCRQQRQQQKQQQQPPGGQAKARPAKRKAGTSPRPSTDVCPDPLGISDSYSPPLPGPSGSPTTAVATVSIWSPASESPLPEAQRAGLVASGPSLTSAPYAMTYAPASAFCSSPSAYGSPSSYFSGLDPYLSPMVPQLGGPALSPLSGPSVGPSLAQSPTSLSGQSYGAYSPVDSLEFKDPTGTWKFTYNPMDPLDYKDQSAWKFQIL

Only a part is listed here, and it is no random draw. At the low end of the ranking the order means little.

What all share (assay): DAPPL (digital affinity profiling via proximity ligation, sequencing)
Holding throughout (conditions): 10 mM Tris-HCl pH 7.5, 50 mM NaCl, 1 mM DTT, 4% glycerol, room temperature, 30 min; GST-TFs on glutathione beads, 16-mer random dsDNA library, 0.1% …; high values mean tight binding; double strand, one strand shown; scale: fold enrichment (6-mer frequency, TF over GST control)

For assay [1], the target named is T1, FEV (UniProt Q99581).
T1 sequence: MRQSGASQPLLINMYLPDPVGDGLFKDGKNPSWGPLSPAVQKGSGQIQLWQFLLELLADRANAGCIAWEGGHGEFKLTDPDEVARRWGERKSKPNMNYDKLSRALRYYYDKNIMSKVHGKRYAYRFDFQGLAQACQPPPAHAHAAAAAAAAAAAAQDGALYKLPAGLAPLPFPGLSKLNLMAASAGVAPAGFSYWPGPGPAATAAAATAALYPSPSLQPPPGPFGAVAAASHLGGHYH

Assay [2] concerns the target CRX (UniProt O43186).
Assay [3] deals with T2, ELF5 (UniProt Q9UKW6-2).
T2 sequence: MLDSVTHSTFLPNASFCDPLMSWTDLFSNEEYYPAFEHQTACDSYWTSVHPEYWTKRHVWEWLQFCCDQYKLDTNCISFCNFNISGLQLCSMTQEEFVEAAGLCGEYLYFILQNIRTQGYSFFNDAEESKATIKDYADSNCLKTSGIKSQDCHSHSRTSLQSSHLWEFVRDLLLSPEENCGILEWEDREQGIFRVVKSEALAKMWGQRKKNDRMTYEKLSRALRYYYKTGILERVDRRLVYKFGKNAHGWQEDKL

Turning to GCATAC, the binding signal came to 0.977 in assay [1], 0.713 in assay [2] and 0.923 in assay [3].

With AGAGAA, the binding signal amounted to 0.775 in assay [1], 0.902 in assay [2] and 0.797 in assay [3].

As for AGCAGA, the binding signal in assay [1] worked out at 0.929; in assay [2], 0.877; in assay [3], 0.903.

As to GCAAAC, the binding signal in assay [1] is 0.967; in assay [2], 0.723; in assay [3], 0.997.

In the case of TCAGTT, the values for the binding signal in assay [1], in assay [2] and in assay [3] were 0.959, 0.932 and 0.937, respectively.

In the case of GTTGAA, the binding signal in assay [1] came out at 0.849; in assay [2], 0.73; in assay [3], 0.836.

For ATAGTG, the binding signal was 0.889 in assay [1], 0.894 in assay [2] and 0.893 in assay [3].

GATAGT: the binding signal in assay [1] amounted to 0.812; in assay [2] it was 0.769; in assay [3] it was 0.788.

For CACCCA, the binding signal in assay [1] was determined as 0.986; in assay [2] it was 0.804; in assay [3] it was 0.993.

For ACTGGG, the binding signal in assay [1] stood at 0.782; in assay [2] it was 0.738; in assay [3], 0.84.

With GCCATC, the binding signal in assay [1] came to 0.927; in assay [2], 0.765; in assay [3], 0.89.

Regarding CACCTA, the binding signal in assay [1] was 0.963; in assay [2] it was 0.966; in assay [3] it was 0.92.

TTTGCA: the binding signal in assay [1] was found to be 1.18; in assay [2], 1.48; in assay [3] it was 1.24.

On to CTTGAG, for which the binding signal was determined as 0.88 in assay [1], 0.982 in assay [2] and 0.965 in assay [3].

Turning to TATACC, the results for the binding signal in assay [1], in assay [2] and in assay [3] were 1.23, 1.26 and 1.22, respectively.

CGCACC: the binding signal in assay [1] was 0.951; in assay [2], 0.63; in assay [3], 0.924.

For GCGTAT, the binding signal stood at 0.886 in assay [1], 0.913 in assay [2] and 0.969 in assay [3].

In the case of GTGCCG, the binding signal stood at 0.979 in assay [1], 0.549 in assay [2] and 0.839 in assay [3].

On to CCACGT, for which the values for the binding signal in assay [1], in assay [2] and in assay [3] were 0.952, 0.778 and 0.903, respectively.

On to CGGCAC, for which the binding signal in assay [1] was determined as 0.984; in assay [2], 0.609; in assay [3], 0.972.

Take CGATGC: the binding signal in assay [1] came to 1.07; in assay [2] it was 0.846; in assay [3], 0.957.

For the sequence AGATGG, the results for the binding signal in assay [1], in assay [2] and in assay [3] were 0.801, 0.871 and 0.863, respectively.

For CTGTGT, the binding signal was 0.881 in assay [1], 0.659 in assay [2] and 0.764 in assay [3].

As to CGGCAA, the binding signal turned out to be 0.923 in assay [1], 0.661 in assay [2] and 0.963 in assay [3].

As to CATTGA, the values for the binding signal in assay [1], in assay [2] and in assay [3] were 0.95, 0.842 and 0.938, respectively.

For the sequence GTCAAA, the binding signal in assay [1] was found to be 0.908; in assay [2], 0.774; in assay [3], 0.87.

Regarding AGATTA, the binding signal in assay [1] turned out to be 0.965; in assay [2], 4.03; in assay [3], 0.948.

Take GGTATG: the binding signal was found to be 0.941 in assay [1], 0.675 in assay [2] and 0.963 in assay [3].

Regarding TCCGGG, the binding signal turned out to be 1.36 in assay [1], 0.632 in assay [2] and 2.39 in assay [3].

Consider GTTCGT, for which the binding signal in assay [1] came out at 0.922; in assay [2] it was 0.769; in assay [3], 0.956.

As to AGTACG, the figures for the binding signal in assay [1], in assay [2] and in assay [3] were 0.885, 0.76 and 0.953, respectively.

For the sequence ATAGCG, the binding signal in assay [1] turned out to be 0.962; in assay [2], 0.865; in assay [3] it was 0.928.

Take GCAAGC: the values for the binding signal in assay [1], in assay [2] and in assay [3] were 0.861, 0.771 and 0.798, respectively.

Consider CAAACG, for which the binding signal in assay [1] stood at 0.948; in assay [2], 0.753; in assay [3], 0.976.

In the case of GTGTTA, the figures for the binding signal in assay [1], in assay [2] and in assay [3] were 0.96, 1.11 and 0.901, respectively.

Regarding ACGCCA, the results for the binding signal in assay [1], in assay [2] and in assay [3] were 0.92, 0.721 and 0.864, respectively.

For CCGCGG, the values for the binding signal in assay [1], in assay [2] and in assay [3] were 0.937, 0.744 and 0.914, respectively.

Regarding GCTGCG, the binding signal in assay [1] was 1.1; in assay [2], 0.856; in assay [3], 1.04.

With GTCTAT, the binding signal came out at 0.969 in assay [1], 0.843 in assay [2] and 1.08 in assay [3].

On to CTGGGG, for which the binding signal is 0.833 in assay [1], 0.695 in assay [2] and 0.801 in assay [3].

For the sequence AGCATG, the binding signal in assay [1] came to 0.935; in assay [2] it was 0.807; in assay [3], 0.798.

Turning to TCATTG, the binding signal in assay [1] was found to be 0.984; in assay [2] it was 0.892; in assay [3] it was 0.959.

As to TGGCGT, the values for the binding signal in assay [1], in assay [2] and in assay [3] were 0.893, 0.792 and 0.964, respectively.

For TATCAA, the binding signal in assay [1] worked out at 0.96; in assay [2] it was 1.21; in assay [3] it was 0.954.

For the sequence TCGTTG, the binding signal in assay [1] stood at 0.925; in assay [2], 0.752; in assay [3], 0.928.

On to GCGCAC, for which the binding signal in assay [1] came out at 0.953; in assay [2], 0.695; in assay [3] it was 0.846.

As for CGCCCA, the binding signal came to 1.02 in assay [1], 0.744 in assay [2] and 0.944 in assay [3].

For the sequence CTGGTC, the binding signal in assay [1] is 1.11; in assay [2], 0.901; in assay [3], 1.17.

With GTAGAA, the values for the binding signal in assay [1], in assay [2] and in assay [3] were 0.888, 0.933 and 0.892, respectively.

GCAATA: the values for the binding signal in assay [1], in assay [2] and in assay [3] were 0.989, 0.92 and 0.949, respectively.

As for CCCGCG, the binding signal came out at 0.936 in assay [1], 0.763 in assay [2] and 0.941 in assay [3].

Turning to AAGAAG, the binding signal in assay [1] was determined as 0.979; in assay [2] it was 1.21; in assay [3], 1.12.

Turning to GGCATA, the values for the binding signal in assay [1], in assay [2] and in assay [3] were 0.907, 0.894 and 0.878, respectively.

Take AGAAGG: the binding signal in assay [1] was 0.633; in assay [2] it was 0.77; in assay [3], 0.771.
